Test results: patent US5763406A, “Method for the treatment of conditions caused by herpes virus infections” (Carlbiotech, Ltd. A/S, priority 1991, dated 1998)
At least one peptide structure holds a part that was inferred or is arguable (an end, a ring closure or a residue).

Test system: HSV-1 infection
Experiment: Topical treatment of HSV-1 lesions in patients with peptide solution (case reports)
Type: in vivo, human
[1] = Example 1, 10 mg/ml in water, topical three times daily

`C[C@@H](N)C(=O)N[C@@H](CO)C(=O)N[C@H](C(=O)N[C@H](C(=O)N[C@H](C(=O)N[C@@H](CC(N)=O)C(=O)N[C@@H](Cc1ccc(O)cc1)C(=O)N[C@H](C(N)=O)[C@@H](C)O)[C@@H](C)O)[C@@H](C)O)[C@@H](C)O` [(D-Ala^1)-Peptide-T Amide, D-Ala-Ser-Thr-Thr-Thr-Asn-Tyr-Thr-NH2] was tested, and the “time until early lesions and vesicular lesions had virtually resolved” value (Example 1, person, lower lip lesions, 10 mg/ml in water, thin film three times daily) was ≤ 36 h, the “time until essentially complete resolution” value [1] was ≤ 3 days and the “time until ulcerated lesions had cleared” value [1] was ≤ 6 days. For the same molecule, the “time until lesions of the buccal mucosa had resolved” value (Example 1, no drug applied to these lesions, drug applied to lip lesions) was ≤ 4 days, the “pain after first treatment” value (Example 2, person, vesicle under right nostril, 10 mg/ml in water three times per day) was “relief of pain” and the “time until resolution without the vesicles developing into open ulcers” value (Example 2, 10 mg/ml in water three times per day) was “two”. For the same molecule, the outcome of vesicles (Example 3, same patient as Example 2, four vesicles, 2 mg/ml in water, twice a day for two days) was “resolved without developing into ulcers”, the “reappearance of vesicles after stop of treatment” value (Example 3, after first two-day course of 2 mg/ml twice a day) was “appearing again one day after the treatment had stopped” and the outbreak during follow-up (Example 3, next month after second course) was “No outburst was observed within the next month”. For the same molecule, the “outcome of repeated treatment” value (Example 3, same 2 mg/ml solution for next two days, twice a day) was “complete resolution of the vesicles”, the “time until ulcers had become dry and then disappeared” value (Example 4, person, ulcerated lesions left nostril, 10 mg/ml in water, four times in 36 hours) was ≤ 48 h and the “size of the vesicle and the ulcer” value (Example 5, person, upper lip, 10 mg/ml in water two times daily) was “immediate decrease in the size of the vesicle and the ulcer”. For the same molecule, the “time until complete resolution” value (Example 5, 10 mg/ml in water two times daily) was “seven”, the “pain from the time of ulceration compared with treatment using aciclovir” value (Example 5, 10 mg/ml two times daily) was “heavily reduced” and the “ulcer quality compared to the aciclovir treatment” value (Example 5, 10 mg/ml two times daily, versus patient's aciclovir treatment) was “thinner and did not tend to crack and bleed as easily as usually”.
